For the test, the system named is B6C3F1 mice, B16 melanoma ip, median survival T/C. Kind of test: NCI In Vivo Anticancer Drug Screen. Data for tumor model B16 Melanoma (intraperitoneal) in B6C3F1 mice. As to conditions: T/C endpoint: median survival time, schedule: Q01DX009 (ip), higher T/C = longer survival. In outline: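 Mice bearing transplanted tumor were dosed with compound or vehicle, and survival was recorded. Activity is expressed as the treated-group measurement (T) divided by the vehicle control measurement (C).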

[1] abbreviates: dose: 200.0 mg/kg/injection, vehicle: water.
Setting [2] is: dose: 200.0 mg/kg/injection, vehicle: saline.
Setting [3] is: dose: 50.0 mg/kg/injection, vehicle: water.
[4] abbreviates: dose: 100.0 mg/kg/injection, vehicle: water.
Where [5] appears, read: dose: 25.0 mg/kg/injection, vehicle: saline.
Where [6] appears, read: dose: 100.0 mg/kg/injection, vehicle: saline.
[7] abbreviates: dose: 0.4 mg/kg/injection, vehicle: saline.

The structures appear in SMILES notation. The list does not hold the whole screen: it gathers tests that were run many times, whatever their T/C, doses with no T/C, and many T/C values between a quarter and a half above the control. Other doses and runs of a compound stand elsewhere. T/C gives the treated animals as a percentage of the vehicle group. Some doses have a count of surviving animals in place of a T/C: the source holds a T/C of zero for them, seemingly a mark for toxic or unscored doses. Some survivor counts are full or nearly so, which does not show that the dose was tolerated: survival well below the control is almost never listed, so the zero probably covers shortened survival too. Survivors were counted at the toxicity check, usually on the fifth day, unless a day is given; later deaths do not show. Schedule codes are those of the source, read here as Q, the interval in days (D) or hours (H), X, the number of doses. Some entries hold several experiments; the values are given in rising order. Some molecules as drawn cover several salts, stereoisomers or complexes of the source; a dose is that of the sample tested. Where survival is the endpoint, the PubChem record calls one and a half times the control and up active, and a quarter to a half above the control has no call in these data; cut-offs in other NCI protocols can differ. Some T/C values carry the count of animals alive at the toxicity check (mostly the fifth day); without a count, all were alive then.

For `Nc1ccc(C(=O)O)cc1`, where the note is “dose: 12.5 mg/kg/injection, vehicle: Klucel (hydroxypropylcellulose) (HPC)”, the T/C is 136 % of control. In addition, the survivor count is, setting by setting: under setting [1], 10 of 10; (dose: 400.0 mg/kg/injection, vehicle: Klucel (hydroxypropylcellulose) (HPC)) 5 of 10; (dose: 400.0 mg/kg/injection, vehicle: water) 10 of 10.
For the compound `c1cn[nH]c1`, the survivor count under setting [2] is listed as 8 of 10.
As to `O=C1C2C3C=CC(C2C(=O)N1CO)C1C2C(=O)N(CO)C(=O)C2C31` (centres undefined), the survivor count is, setting by setting: under setting [3], 10 of 10; under setting [4], 6 of 10.
Consider `C[CH2][Sn]([CH2]C)([O]S(C)(=O)=O)[O]S(C)(=O)=O`, for which, under setting [5], the survivor count was 2 of 10 and 4 of 10.
With `BrCC[Se]c1ccccc1`, for the setting “dose: 6.25 mg/kg/injection, vehicle: saline with Tween-80”, the T/C was 136 % of control. Under “dose: 100.0 mg/kg/injection, vehicle: saline with Tween-80”, the survivor count is 7 of 10 and 10 of 10.
As to `CCOC(=O)c1c[nH]c2oc(/C=N/N3CC(CN4CCOCC4)OC3=O)cc2c1=O` (centres undefined), the T/C was 125 % of control under setting [6] and 130 % of control under setting [2].
With `O=C1CC2(C(=O)N1CN1CCOCC1)c1ccccc1-c1ccccc12`, the survivor count (dose: 800.0 mg/kg/injection, vehicle: Klucel (hydroxypropylcellulose) (HPC)) is given as 5 of 10.
On to `Nc1ncc(C2OC(CO)C(O)C2O)c(=O)[nH]1` (centres undefined), for which the T/C reads like this: under setting [5], 130 % of control; (dose: 50.0 mg/kg/injection, vehicle: saline) 143 % of control. Also, the survivor count was 8 of 10 under setting [6]; 8 of 10 and 10 of 10 under setting [2]; 10 of 10 (dose: 400.0 mg/kg/injection, vehicle: saline).
On to `O=NNc1ccc(Br)cn1`, for which the T/C (dose: 6.25 mg/kg/injection, vehicle: water) is 125 and 132 % of control. Also, where the note is “dose: 25.0 mg/kg/injection, vehicle: water”, the survivor count is listed as 10 of 10.
As to `C[N+](C)=C1C=CC(=C2C=CSC=C2)C=C1`, the survivor count (dose: 12.5 mg/kg/injection, vehicle: saline) is 7 of 9.
On to `CNC(=O)/C=C/C1=CN2C(=O)c3ccc(C)c(O)c3NC(OC)C2C1` (centres undefined), for which the T/C by setting is: (dose: 0.2 mg/kg/injection, vehicle: saline) 138 % of control; under setting [7], 142 % of control [9 of 10 alive]. In addition, the survivor count is 8 of 10 (dose: 0.2 mg/kg/injection, vehicle: suspension in saline); 10 of 10 under setting [7]; 5 of 10 (dose: 0.4 mg/kg/injection, vehicle: suspension in saline); 0 of 10 (dose: 0.8 mg/kg/injection, vehicle: suspension in saline).
As for `CC(=O)Nc1ccc(C(=O)C=O)cc1`, the survivor count (dose: 200.0 mg/kg/injection, vehicle: saline with Tween-80) is 7 of 9 and 10 of 10.
Regarding `COc1cc(NCc2ccc3nc(N)nc(N)c3c2C)cc(OC)c1OC`, the T/C was 130 % of control (dose: 20.0 mg/kg/injection, vehicle: sodium bicarbonate); 128 % of control (dose: 40.0 mg/kg/injection, vehicle: sodium bicarbonate); 127 % of control under setting [3]. Further, the survivor count by setting is: (dose: 80.0 mg/kg/injection, vehicle: sodium bicarbonate) 10 of 10; under setting [4], 5 of 5; under setting [1], 2 of 10.

Source of the values: PubChem BioAssay AID200 (DTP/NCI, 2004).
